Measurements as given in the supplement of paper PMC12067093, “Discovery and optimisation of a covalent ligand for TRIM25 and its application to targeted protein ubiquitination” (Chemical Science, 2025).
The other results are listed elsewhere or left out.

Compound: Cc1cc(ccc1-c1ccccc1)C(=O)N1CCCN(CC1)C(=O)CCl [compound 10]
Experiment: probe-labelled cysteine peptide fold change vs DMSO (competition) (log2 fold change); higher = less target engagement (more negative = stronger competition)
Settings: THP-1, incubation time: 4 h
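Also: competitive profiling in live THP-1 cells: cysteine peptides tagged with an iodoacetamide desthiobiotin (IA-DTB) probe, intensity after compound treatment relative to DMSO-treated cells.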

Target: NUDT14_O95848_12_CAASPYLRPLTLHYR (UniProt O95848)
- probe-labelled cysteine peptide fold change (10 µM): -0.114
- probe-labelled cysteine peptide fold change (50 µM): 0.105

Target: NUDT9_Q9BW91_347_DAHWSEDSEADCHAL (UniProt Q9BW91)
- probe-labelled cysteine peptide fold change (10 µM): -0.118
- probe-labelled cysteine peptide fold change (50 µM): -0.189

Target: NUP43_Q8NFH3_222_VPLHCVDRHPNQQHVVATGGQDGMLSIWDVR (UniProt Q8NFH3)
- probe-labelled cysteine peptide fold change (10 µM): 0.221
- probe-labelled cysteine peptide fold change (50 µM): -0.351

Target: NUTF2_P61970_80_IQHSITAQDHQPTPDSCIISMVVGQLK (UniProt P61970)
- probe-labelled cysteine peptide fold change (10 µM): 0.0102
- probe-labelled cysteine peptide fold change (50 µM): -0.0927

Target: OGT_O15294_620_VMAEANHFIDLSQIPCNGK (UniProt O15294)
- probe-labelled cysteine peptide fold change (10 µM): -0.221
- probe-labelled cysteine peptide fold change (50 µM): -0.934

Target: OGFR_Q9NZT2_330_TCGPEHSK (UniProt Q9NZT2)
- probe-labelled cysteine peptide fold change (10 µM): 0.037
- probe-labelled cysteine peptide fold change (50 µM): -0.198

Target: NUS1_Q96E22_184_YSPEFANSNDKDDQVLNCHLAVK (UniProt Q96E22)
- probe-labelled cysteine peptide fold change (10 µM): 0.0563
- probe-labelled cysteine peptide fold change (50 µM): -0.361

Target: NUP93_Q8N1F7_397_CDVTDNQSEVADK (UniProt Q8N1F7)
- probe-labelled cysteine peptide fold change (10 µM): -0.073
- probe-labelled cysteine peptide fold change (50 µM): 0.331

Target: OLA1_Q9NTK5_75_VPVPDERFDFLCQYHK (UniProt Q9NTK5)
- probe-labelled cysteine peptide fold change (10 µM): 0.24
- probe-labelled cysteine peptide fold change (50 µM): -0.00208

Target: NUMB_P49757_176_ECGVTATFDASR (UniProt P49757)
- probe-labelled cysteine peptide fold change (10 µM): -0.125
- probe-labelled cysteine peptide fold change (50 µM): -0.0541

Target: NUMA1_Q14980_2009_ATSCFPR (UniProt Q14980)
- probe-labelled cysteine peptide fold change (10 µM): -0.121
- probe-labelled cysteine peptide fold change (50 µM): -0.187

Target: NUP93_Q8N1F7_569_CVSELVIESR (UniProt Q8N1F7)
- probe-labelled cysteine peptide fold change (10 µM): 0.398
- probe-labelled cysteine peptide fold change (50 µM): 0.725

Target: NUP50_Q9UKX7_428_NNVLIVCVPNPPIDEK (UniProt Q9UKX7)
- probe-labelled cysteine peptide fold change (10 µM): -0.0233
- probe-labelled cysteine peptide fold change (50 µM): 0.127

Target: NUP153_P49790_871+874_CLACESAKPGTK (UniProt P49790)
- probe-labelled cysteine peptide fold change (10 µM): 0.172
- probe-labelled cysteine peptide fold change (50 µM): -0.334

Target: NUTF2_P61970_114_NINDAWVCTNDMFR (UniProt P61970)
- probe-labelled cysteine peptide fold change (10 µM): 0.0967
- probe-labelled cysteine peptide fold change (50 µM): 0.0898

Target: NUDT21_O43809_144_QDGVLQDWVIDDCIGNWWRPNFEPPQYPYIPAHITKPK (UniProt O43809)
- probe-labelled cysteine peptide fold change (10 µM): 0.0744
- probe-labelled cysteine peptide fold change (50 µM): 0.0879

Target: NUP88_Q99567_407_YHCTHEAGVHSVGLTWIHK (UniProt Q99567)
- probe-labelled cysteine peptide fold change (10 µM): 0.126
- probe-labelled cysteine peptide fold change (50 µM): 0.178

Target: NUBP2_Q9Y5Y2_72_AVHQCDR (UniProt Q9Y5Y2)
- probe-labelled cysteine peptide fold change (10 µM): 0.0354
- probe-labelled cysteine peptide fold change (50 µM): -0.734

Target: OGFOD3_Q6PK18_90_FIEVPCSEDYDSHRR (UniProt Q6PK18)
- probe-labelled cysteine peptide fold change (10 µM): -0.581
- probe-labelled cysteine peptide fold change (50 µM): -0.0624

Target: NUP160_Q12769_303_GDQSPSDRPLSLAVHCVEHDAFIFALCQDHK (UniProt Q12769)
- probe-labelled cysteine peptide fold change (10 µM): 0.131
- probe-labelled cysteine peptide fold change (50 µM): 0.191

Target: OGT_O15294_323_LCPTHADSLNNLANIKR (UniProt O15294)
- probe-labelled cysteine peptide fold change (10 µM): 0.0634
- probe-labelled cysteine peptide fold change (50 µM): -0.411

Target: NUP88_Q99567_155_STVNCSTTPVAER (UniProt Q99567)
- probe-labelled cysteine peptide fold change (10 µM): -0.187
- probe-labelled cysteine peptide fold change (50 µM): 0.0547

Target: NUMA1_Q14980_803_ELAEAMAAQHTAESECEQLVK (UniProt Q14980)
- probe-labelled cysteine peptide fold change (10 µM): 0.212
- probe-labelled cysteine peptide fold change (50 µM): 0.247

Target: ODF2_Q5BJF6_708_TRECGTLAR (UniProt Q5BJF6)
- probe-labelled cysteine peptide fold change (10 µM): 0.538
- probe-labelled cysteine peptide fold change (50 µM): 0.396

Target: OBSL1_O75147_738_VVLTCELSR (UniProt O75147)
- probe-labelled cysteine peptide fold change (10 µM): 0.0557
- probe-labelled cysteine peptide fold change (50 µM): 0.341

Target: NVL_O15381_309_GVLLHGPPGCGK (UniProt O15381)
- probe-labelled cysteine peptide fold change (10 µM): 0.0664
- probe-labelled cysteine peptide fold change (50 µM): 0.0738

Target: OGA_O60502_863_SMMACLLSSLK (UniProt O60502)
- probe-labelled cysteine peptide fold change (10 µM): 4.11e-05
- probe-labelled cysteine peptide fold change (50 µM): -0.288

Target: NUP155_O75694_974_CITDTLQELVNQSK (UniProt O75694)
- probe-labelled cysteine peptide fold change (10 µM): -0.0265
- probe-labelled cysteine peptide fold change (50 µM): -0.00466

Target: OGG1_O15527_140_LLRQDPIECLFSFICSSNNNIAR (UniProt O15527)
- probe-labelled cysteine peptide fold change (10 µM): 0.0334
- probe-labelled cysteine peptide fold change (50 µM): -0.114

Target: NTPCR_Q9BSD7_184_NHLLPDIVTCVQSSR (UniProt Q9BSD7)
- probe-labelled cysteine peptide fold change (10 µM): -0.0593
- probe-labelled cysteine peptide fold change (50 µM): -0.0301

Target: OGT_O15294_68_QEPDNTGVLLLLSSIHFQCR (UniProt O15294)
- probe-labelled cysteine peptide fold change (10 µM): 0.327
- probe-labelled cysteine peptide fold change (50 µM): 0.681

Target: NUP153_P49790_753_CVACETPKPGTCVK (UniProt P49790)
- probe-labelled cysteine peptide fold change (10 µM): -0.14
- probe-labelled cysteine peptide fold change (50 µM): -1.02

Target: NUP155_O75694_433_GILLMAASENEDNDILWCVNHDTFPFQK (UniProt O75694)
- probe-labelled cysteine peptide fold change (10 µM): 0.304
- probe-labelled cysteine peptide fold change (50 µM): 0.47

Target: OBSL1_O75147_209_LPDSGVYVCHAR (UniProt O75147)
- probe-labelled cysteine peptide fold change (10 µM): 5.8e-05
- probe-labelled cysteine peptide fold change (50 µM): 0.035

Target: NUDT3_O95989_68_EVCEEAGVK (UniProt O95989)
- probe-labelled cysteine peptide fold change (10 µM): -0.0389
- probe-labelled cysteine peptide fold change (50 µM): -0.0139

Target: NUP155_O75694_1344_YVENPSQVLNCER (UniProt O75694)
- probe-labelled cysteine peptide fold change (10 µM): -0.166
- probe-labelled cysteine peptide fold change (50 µM): -0.621

Target: OGDH_Q02218_487_VVNAPIFHVNSDDPEAVMYVCK (UniProt Q02218)
- probe-labelled cysteine peptide fold change (10 µM): -0.0133
- probe-labelled cysteine peptide fold change (50 µM): -0.108

Target: NUDT18_Q6ZVK8_241_LLQECLTLHHLVVEIK (UniProt Q6ZVK8)
- probe-labelled cysteine peptide fold change (10 µM): -0.00533
- probe-labelled cysteine peptide fold change (50 µM): 0.35

Target: NUP160_Q12769_473_EMYLQSLFTPGQFTNEALCK (UniProt Q12769)
- probe-labelled cysteine peptide fold change (10 µM): 0.168
- probe-labelled cysteine peptide fold change (50 µM): -0.0779

Target: NUDC_Q9Y266_188_WTQTLSELDLAVPFCVNFR (UniProt Q9Y266)
- probe-labelled cysteine peptide fold change (10 µM): -0.0295
- probe-labelled cysteine peptide fold change (50 µM): 0.0825

Target: NUBP1_P53384_256_ESQIFPPTTGGAELMCQDLEVPLLGR (UniProt P53384)
- probe-labelled cysteine peptide fold change (10 µM): -0.0464
- probe-labelled cysteine peptide fold change (50 µM): -0.0989

Target: NUP133_Q8WUM0_457_IVFNAQGDSVLGAGACGGVPIIFSR (UniProt Q8WUM0)
- probe-labelled cysteine peptide fold change (10 µM): -0.00853
- probe-labelled cysteine peptide fold change (50 µM): 0.118
